# Literature values, collected in US20090068174A1, “THERAPEUTIC ALKALINE PROTEASE COMPOSITIONS AND USE IN FACILITATING THE TRANSPORT OF AGENTS ACROSS THE GASTROINTESTINAL MUCOSAL LINING” (Kansas University Medical Center Research Institute, Inc., priority 2007, published 2009).
# Read-outs that look alike come from different tables or passages of the source.
# Experiments:
# [1] = Table 4, cited from earlier work
# [2] = Table 1; cited from earlier work
compound,measurement,setting,value
"[2H]N[C@@H](CCCCN)C(=O)O (single isomer, unassigned) [Deuterolysin, reference compound]",Metal requirements,[1],"Zn, Ca, Co"
same,pH optimum,[1]; pH optima vary with substrate,pH 6-8
same,pH optimum,[2],5.0-7.0
